Reference: patent US5414144A, “Propylene glycol cyclohexyl ether derivatives, method of producing same and uses thereof” (Asahi Kasei Kogyo Kabushiki Kaisha, priority 1993, dated 1995)

Assay: Detergency: rosin dissolution rate
Details: 7 minutes, shaking

SMILES | Detergency: Rosin dissolution rate [%]
CCCCCCOCCOCCO [Comparative Example 2, Diethylene glycol mono-n-hexyl ether] | < 15
C=C(C)C1CC=C(C)CC1 (stereo not drawn) [Comparative Example 6, Limonene] | ≥ 30
CCCCOCCOCCO [Comparative Example 7, Diethylene glycol monobutyl ether] | ≥ 30
CCOCCOCCOCC [Comparative Example 8, Diethylene glycol diethyl ether] | ≥ 30
COCC(C)OC1CCCCC1 (stereo not drawn) [Example 1, propylene glycol methyl cyclohexyl ether] | ≥ 30
CCOCC(C)OC1CCCCC1 (stereo not drawn) [Example 2, propylene glycol ethyl cyclohexyl ether] | ≥ 30
